Source: article PMC6183346
These are yes or no findings as the source states them, for the method shown. Binding seen in cells or lysates may run through a third protein. Some results given as binding are weak or reduced against the parent protein; the word gives no strength.

Chains of the proteins cited; added tags and fusions are not shown.
UniProt P06428: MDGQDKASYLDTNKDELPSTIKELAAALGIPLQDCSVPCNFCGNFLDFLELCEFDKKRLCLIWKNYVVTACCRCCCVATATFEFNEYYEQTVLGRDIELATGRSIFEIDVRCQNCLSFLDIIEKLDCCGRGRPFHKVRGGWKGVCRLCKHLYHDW
UniProt Q01968: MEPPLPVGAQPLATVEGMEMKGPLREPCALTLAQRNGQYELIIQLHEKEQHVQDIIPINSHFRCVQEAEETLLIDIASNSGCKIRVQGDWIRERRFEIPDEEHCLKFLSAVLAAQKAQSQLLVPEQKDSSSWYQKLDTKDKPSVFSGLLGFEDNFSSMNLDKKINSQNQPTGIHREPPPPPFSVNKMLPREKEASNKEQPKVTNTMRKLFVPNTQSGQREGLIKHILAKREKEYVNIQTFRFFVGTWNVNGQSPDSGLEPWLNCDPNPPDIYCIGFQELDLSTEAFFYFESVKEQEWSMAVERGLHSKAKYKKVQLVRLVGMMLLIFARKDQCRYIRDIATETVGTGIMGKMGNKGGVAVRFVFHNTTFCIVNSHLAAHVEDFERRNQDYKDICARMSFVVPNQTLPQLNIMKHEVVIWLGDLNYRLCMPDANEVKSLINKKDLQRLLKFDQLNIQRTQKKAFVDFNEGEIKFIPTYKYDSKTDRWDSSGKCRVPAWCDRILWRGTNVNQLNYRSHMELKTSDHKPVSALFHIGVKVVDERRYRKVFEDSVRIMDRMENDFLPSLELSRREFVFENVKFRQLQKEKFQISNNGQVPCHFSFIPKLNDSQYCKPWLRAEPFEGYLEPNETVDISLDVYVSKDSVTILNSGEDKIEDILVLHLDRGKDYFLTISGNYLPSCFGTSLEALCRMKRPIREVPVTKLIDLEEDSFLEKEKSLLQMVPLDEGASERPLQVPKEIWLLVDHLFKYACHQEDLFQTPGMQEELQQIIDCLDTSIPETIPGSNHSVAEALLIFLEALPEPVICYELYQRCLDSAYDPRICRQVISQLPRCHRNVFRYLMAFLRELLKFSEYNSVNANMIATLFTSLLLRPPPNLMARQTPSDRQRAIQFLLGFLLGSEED
UniProt Q92585: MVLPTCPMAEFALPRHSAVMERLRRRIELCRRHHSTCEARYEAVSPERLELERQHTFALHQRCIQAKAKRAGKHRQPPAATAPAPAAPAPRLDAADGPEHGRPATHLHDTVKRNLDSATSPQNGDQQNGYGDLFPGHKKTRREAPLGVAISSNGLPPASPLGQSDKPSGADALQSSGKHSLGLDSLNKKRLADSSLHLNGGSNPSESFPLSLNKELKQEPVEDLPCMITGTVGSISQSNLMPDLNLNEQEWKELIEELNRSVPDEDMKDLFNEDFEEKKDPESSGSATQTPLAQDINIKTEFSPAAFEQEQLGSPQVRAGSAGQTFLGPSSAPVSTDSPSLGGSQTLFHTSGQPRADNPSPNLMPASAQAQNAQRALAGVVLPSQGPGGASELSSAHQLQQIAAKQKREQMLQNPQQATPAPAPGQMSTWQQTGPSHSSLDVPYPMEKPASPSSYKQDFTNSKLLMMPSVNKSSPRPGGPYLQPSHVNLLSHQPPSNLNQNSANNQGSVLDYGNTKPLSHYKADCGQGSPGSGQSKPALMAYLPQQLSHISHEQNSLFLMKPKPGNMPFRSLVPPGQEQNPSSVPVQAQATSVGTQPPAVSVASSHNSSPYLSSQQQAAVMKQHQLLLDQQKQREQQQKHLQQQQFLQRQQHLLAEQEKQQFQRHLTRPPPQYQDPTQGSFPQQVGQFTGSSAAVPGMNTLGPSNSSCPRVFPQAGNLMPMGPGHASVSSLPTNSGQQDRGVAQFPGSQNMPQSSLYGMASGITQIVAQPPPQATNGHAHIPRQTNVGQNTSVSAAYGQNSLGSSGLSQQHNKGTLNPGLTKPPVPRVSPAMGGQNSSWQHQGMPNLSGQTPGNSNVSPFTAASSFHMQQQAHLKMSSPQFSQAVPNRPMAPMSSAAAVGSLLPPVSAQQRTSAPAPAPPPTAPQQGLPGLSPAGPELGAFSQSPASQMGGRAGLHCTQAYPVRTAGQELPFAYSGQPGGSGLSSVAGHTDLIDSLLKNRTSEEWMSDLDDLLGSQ

Target: Flag-tagged HPV8-E6wt (human papillomavirus type 8) (UniProt P06428)
Test: co-IP; extracts of transiently transfected C33a cells incubated with M2-FLAG-agarose for 2 h at 4 °C, three washes with LSDB containing different KCl concentrations; co-precipitated endogenous protein detected by Western blot

Substance | binding
inositol-polyphosphate-5-phosphatase (OCRL1) (from UniProt Q01968 1-901) (enzyme) | binds
Mastermind-like protein 1 (MAML1) (from UniProt Q92585 1-1016) | binds
